Experimental data as given in PubChem BioAssay AID1489 (National Center for Advancing Translational Sciences (NCATS), 2009).
This list was built around the results that the source calls inconclusive (neither active nor inactive); the mix of calls is not that of the screen. Where the call is inconclusive, the potency comes from a doubtful curve fit. The source made the active and inactive calls. The call rests on the fitted dose curve; in most records, active means well fitted antagonist curve with a large enough effect in the main read-out, with a control signal flat; inconclusive means small, poorly fitted or top-dose-only effect; inactive means no such curve, though single readings can be large or run the other way.

Sequences of proteins named here, by UniProt entry; tags and fusion partners are left off. A change or cut given only in a name is not applied to a line headed by its entry.
UniProt Q6W5P4: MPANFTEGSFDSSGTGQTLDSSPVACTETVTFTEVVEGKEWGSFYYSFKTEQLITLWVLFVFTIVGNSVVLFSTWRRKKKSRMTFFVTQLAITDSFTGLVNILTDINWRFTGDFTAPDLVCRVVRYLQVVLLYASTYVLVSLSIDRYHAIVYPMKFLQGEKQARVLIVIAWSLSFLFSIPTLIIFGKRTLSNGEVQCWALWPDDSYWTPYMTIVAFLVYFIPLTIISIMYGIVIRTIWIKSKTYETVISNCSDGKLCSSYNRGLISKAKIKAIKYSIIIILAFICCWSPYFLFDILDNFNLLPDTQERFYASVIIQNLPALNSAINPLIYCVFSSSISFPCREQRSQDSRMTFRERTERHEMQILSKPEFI

target: Neuropeptide S receptor (Homo sapiens) (UniProt Q6W5P4); experiment: Confirmation Concentration-Response Assay for Antagonists of the Neuropeptide S Receptor: Calcium Signal Transduction; details: CHO-NPSR cells, NPS-induced calcium flux, FDSS; activity change, negative = inhibition: at 19.3 µM (top of the series)
Source text: NIH Chemical Genomics Center [NCGC] NIH Molecular Libraries Probe Production centers Network [MLPCN] MLPCN Grant: X01-DA026210-01 Assay Submitter (PI): Heilig, Markus Alexander NCGC Assay Overview: Neuropeptide S receptor (NPSR), previously known as GPR154, is a recently de-orphanized G protein coupled receptor. Its endogenous ligand is the 20 amino acids peptide Neuropeptide S (NPS). […] NPS and its receptor are found in various tissues. Specifically they are highly expressed in brain areas that have been implicated in modulation of arousal, stress and anxiety. Central administration of NPS in mice produces an unusual profile of activity by inducing wakefulness and arousal, while at the same time suppressing anxiety. Therefore, NPSR may represent a novel drug target for the treatment of sleep and anxiety disorders. To identify NPSR antagonists, we developed a cell-based assay with transfected NPS receptor. NPS can stimulate the production of cAMP as well as release intracellular calcium in Chinese hamster ovary cells stably expressing NPS receptor. This change in intracellular calcium can be detected using a calcium indicator dye on a calcium imaging plate reader system (FDSS).
NCGC Assay Protocol Summary: A Chinese hamster ovary (CHO) cell line stably expressing the NPS receptor (CHO-NPSR) was obtained from Dr. Heilig lab at NIAAA and maintained in F-12 Kaighn's media (Invitrogen, Carlsbad, CA, 21127) supplemented with 10 % FBS, 100 units/ml penicillin, 100 ug/ml streptomycin and 250 ug/ml geneticin at 37C, 5% CO2 in a humidified atmosphere. Before the assay, aliquots of cells were frozen and stored at -135C. The assay was performed on a FDSS-7000 kinetic plate reader in 1536-well format. For both agonist (1-220s) and antagonist (221-400s) phases, the maximums of kinetic fluorescence responses were converted separately into text files using the instrument's software data export utility. Data for agonist response were normalized to the controls for basal activity (DMSO only) and 100% activation (NPS). […] AC50 values were determined from concentration-response data modeled with the standard Hill equation. NPS 1536-well FDSS assay protocol: (1) Frozen CHO-NPSR cells were thaw, washed once with fresh media and resuspended in F-12 Kaighn's media supplemented with 10 % FBS, 100 units/ml penicillin and 100 ug/ml streptomycin. Cells were plated at 3 ul/well (1200 cells) to black, clear-bottom, tissue-culture treated 1536-well plates, and then cultured at 37C, 5 % CO2 for 16 to 30 hours. (2) Add 3 ul of calcium dye (from High Performance PBX Calcium Assay Kit, BD Biosciences). The calcium dye was prepared according to the manufactory's instruction. (3) Incubation at 37C, 5 % CO2 for 60 to 120 min. (4) Load plates to FDSS-7000. The following steps were performed on FDSS-7000. (5) Record fluorescent background (Ex 480 nm, Em 520-560 nm) for 10 s. (6) Add 23 nl/well of compound in DMSO solution. The final titration for each compound was between 0.6 nM and 46 uM. Record agonist response for 210 s. (7) Add 2 ul of stimulation reagent (1X HBSS buffer, 0.1% BSA, 60 nM NPS). Record antagonist response for 140 s. Keywords: MLSMR, MLPCN, NIH Roadmap, qHTS, NCGC, NPS, Neuropeptide S Antagonists

Question: `Cc1ccc(-c2ccc(/C=C3\C(=O)ON=C3c3ccccc3)o2)c([N+](=O)[O-])c1` was tested. Which Potency did it give?
Answer: active: 2.82 µM

Question: For `CCOC(=O)c1cnc(Nc2nc3ccccc3o2)nc1CSC(=S)N(CC)CC`, which Potency is on record?
Answer: inconclusive: 0.316 µM [antagonist, full curve, poor fit]

Question: With `COC(=O)/C(=C1/Oc2cc(C)oc(=O)c2S1)C(F)(F)F` as the molecule, how does the Potency read?
Answer: inconclusive: 0.0224 µM [antagonist, full curve, poor fit]

Question: How did the Potency turn out when `CC(=O)c1c(C(C)=O)c(C)n(NC(=O)c2cccnc2)c1C` was run?
Answer: inconclusive: 0.355 µM [antagonist, full curve, poor fit]

Question: For `N#Cc1cnn(-c2ncnc3sc4c(c23)CCCC4)c1N`, which “activity change, negative = inhibition” value is on record?
Answer: inactive: -17.2%

Question: With `C(=C\c1ccccc1)/CN1CCN(C(c2ccccc2)c2ccccc2)CC1` as the molecule, how does the Potency read?
Answer: inconclusive: 14.1 µM [falling, partial curve, poor fit]

Question: How did the Potency turn out when `CC1=C(C(N)=O)C(c2cccnc2)n2nc(-c3cccc(C)c3)nc2N1` (stereo not given) was run?
Answer: inconclusive: 11.2 µM [falling, single point]

Question: How did the Potency turn out when `Cc1csc(Sc2ccc([N+](=O)[O-])cc2C(=O)OCC(=O)NC2CCCC(C)C2C)n1` (stereo not given) was run?
Answer: inconclusive: 1.12 µM [antagonist, partial curve]

Question: With `N[C@@H](Cc1cc(I)c(Oc2ccc(O)c(I)c2)c(I)c1)C(=O)O` as the molecule, how does the Potency read?
Answer: inconclusive: 0.794 µM [antagonist, full curve, poor fit]

Question: Which Potency does the source give for `N=C1c2ccccc2CN1c1ccc(N2CCOCC2)c(S(=O)(=O)Nc2ccc(Cl)cc2)c1` here?
Answer: active: 1.41 µM

Question: Which Potency does the source give for `O=C(Nc1ccc(Oc2c(F)c(F)c(F)c(F)c2F)cc1)OC1CCN2Cc3ccccc3N=C12` (stereo not given) here?
Answer: inconclusive: 2 µM [antagonist, single point]

Question: `COc1ccc(O)c(/C=N/Nc2nc(Nc3ccccc3)nc(-n3nc(C)cc3C)n2)c1` was tested. Which Potency did it give?
Answer: inconclusive: 0.00398 µM [antagonist, full curve, poor fit]

Question: How did the Potency turn out when `CCOC(=O)C1CCCN(c2ncnc3c2oc2ccccc23)C1` (stereo not given) was run?
Answer: active: 12.6 µM

Question: For `CCC(C)n1c(=O)c(C(=O)Nc2ccccc2S(N)(=O)=O)c(O)c2ccccc21` (stereo not given), which “activity change, negative = inhibition” value is on record?
Answer: inactive: -2.76%

Question: How did the “activity change, negative = inhibition” value turn out when `O=c1cc(CNCCCO)c2ccccc2[nH]1` was run?
Answer: inactive: -1.54%

Question: For `N#Cc1c(-c2ccccc2)c(-c2ccccc2)nn(CC(=O)NNC(=O)Nc2ccc(Cl)c(Cl)c2)c1=O`, which Potency is on record?
Answer: inconclusive: 0.00398 µM [antagonist, full curve, poor fit]

Question: With `c1ccc(-c2ccc(-c3nc(-c4cccnc4)no3)cc2)cc1` as the molecule, how does the “activity change, negative = inhibition” value read?
Answer: inactive: -15.9%

Question: How did the Potency turn out when `CCCN1C(=O)/C(=C/c2ccc(N3CCCC3)c(C)c2)NC1=S` was run?
Answer: inconclusive: 1.58 µM [falling, full curve]

Question: For `Nc1cc2nsnc2cc1Br`, which Potency is on record?
Answer: inconclusive: 14.1 µM [antagonist, partial curve, poor fit]

Question: Which Potency does the source give for `C=C1C(=O)C=C2CN(C(=O)c3ccccc3)[C@@](Cc3ccc(F)cc3)(C(=O)OC)[C@@H]12` here?
Answer: inconclusive: 1.12 µM [antagonist, full curve, poor fit]

Question: Which Potency does the source give for `OC(C#Cc1ccccn1)c1cccs1` (stereo not given) here?
Answer: inconclusive: 8.91 µM [antagonist, partial curve, poor fit]

Question: For `COc1ccc(-c2cc(N)n(S(=O)(=O)c3c(F)c(F)c(F)c(F)c3F)n2)cc1OC`, which Potency is on record?
Answer: active: 7.08 µM

Question: How did the Potency turn out when `COc1ccc(N=C2S/C(=C\c3ccc(N4CCOCC4)o3)C(=O)N2CCc2c[nH]c3ccccc23)cc1` was run?
Answer: active: 2.24 µM

Question: Which Potency does the source give for `CC1CCCCN1S(=O)(=O)c1ccc(C(=O)Nc2sccc2C(N)=O)cc1` (stereo not given) here?
Answer: active: 12.6 µM

Question: `CN(C)c1nc(=Nc2cccc(Cl)c2)ss1` was tested. Which “activity change, negative = inhibition” value did it give?
Answer: inactive: 5.52%

Question: With `CN(C)c1ccc(/C=C/C(=O)c2cccc(Br)c2)cc1` as the molecule, how does the Potency read?
Answer: inconclusive: 2.51 µM [falling, full curve, poor fit]

Question: `Cc1cccnc1NC(=O)c1c(O)c2cccc3c2n(c1=O)CCC3` was tested. Which “activity change, negative = inhibition” value did it give?
Answer: inactive: -5.87%

Question: Which Potency does the source give for `CN(C)S(=O)(=O)Nc1ccccc1C(N)=O` here?
Answer: inconclusive: 0.126 µM [antagonist, full curve, poor fit]

Question: With `S=C(Nc1ccccn1)c1ccccn1` as the molecule, how does the Potency read?
Answer: inconclusive: 0.178 µM [antagonist, full curve, poor fit]

Question: With `CSc1nc2cc(Cl)ccc2s1` as the molecule, how does the Potency read?
Answer: inconclusive: 11.2 µM [falling, single point]

Question: Which Potency does the source give for `O=C(/C=C/c1ccco1)NC(=S)Nc1ccc(O)c(-c2nc3ccccc3s2)c1` here?
Answer: inconclusive: 0.316 µM [antagonist, full curve, poor fit]

Question: `CCCC(c1nnnn1C1CCCC1)N1CCN(C(=O)c2ccco2)CC1` (stereo not given) was tested. Which Potency did it give?
Answer: inconclusive: 11.2 µM [falling, single point]

Question: Which “activity change, negative = inhibition” value does the source give for `C=CCNC(=O)/C(C#N)=C/c1cn(-c2ccccc2)nc1-c1ccc(OC)c([N+](=O)[O-])c1` here?
Answer: inactive: -2.88%

Question: With `C/C(=N\Nc1ncc(Cl)cc1Cl)c1ccccn1` as the molecule, how does the Potency read?
Answer: active: 2.51 µM

Question: How did the Potency turn out when `O=C(c1ccco1)N1CCN(C(c2ccccc2Cl)c2nnnn2Cc2cccs2)CC1` (stereo not given) was run?
Answer: inconclusive: 4.47 µM [falling, full curve, poor fit]

Question: `CCOc1ccccc1NC1=CC(=O)CC(c2ccccc2)C1` (stereo not given) was tested. Which Potency did it give?
Answer: inconclusive: 0.2 µM [antagonist, full curve]

Question: For `NC(=O)c1ccsc1NC(=O)c1ccc(S(=O)(=O)N2CCCC2)cc1`, which Potency is on record?
Answer: inconclusive: 11.2 µM [antagonist, single point]

Question: Which “activity change, negative = inhibition” value does the source give for `CC1CCCc2sc3nc(N4CCN(CCO)CC4)n4ncnc4c3c21` (stereo not given) here?
Answer: inactive: 17.5%

Question: For `O=C(/C(=C/c1ccc(Cl)cc1)c1nc2ccccc2[nH]1)c1cccs1`, which Potency is on record?
Answer: active: 8.91 µM

Question: `CCCCCCCCCCCCCCCCCC(=O)NCC(COP(=O)([O-])OCC[N+](C)(C)C)OCC` (stereo not given) was tested. Which Potency did it give?
Answer: inconclusive: 12.6 µM [falling, partial curve]
